Measurements from “University of Dundee, Small-Polar-MMV Screening Library” (2021), ChEMBL document CHEMBL3988442.

Sequences of proteins named here, by UniProt entry; tags and fusion partners are left off. Residues count along the entry.
UniProt P9WPC5, whole entry: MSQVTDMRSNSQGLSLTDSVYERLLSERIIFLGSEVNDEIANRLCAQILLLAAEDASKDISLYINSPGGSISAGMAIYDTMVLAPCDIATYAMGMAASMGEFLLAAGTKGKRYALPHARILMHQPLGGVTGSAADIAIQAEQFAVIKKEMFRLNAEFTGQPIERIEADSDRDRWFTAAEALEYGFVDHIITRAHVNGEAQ
UniProt P9WPC3, whole entry partner: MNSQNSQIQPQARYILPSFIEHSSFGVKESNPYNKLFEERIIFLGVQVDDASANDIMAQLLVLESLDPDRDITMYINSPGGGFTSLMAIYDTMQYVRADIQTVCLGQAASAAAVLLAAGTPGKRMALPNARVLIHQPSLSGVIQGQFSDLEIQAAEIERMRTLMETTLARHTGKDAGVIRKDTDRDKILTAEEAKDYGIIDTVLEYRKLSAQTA
UniProt P9WNZ1, whole entry: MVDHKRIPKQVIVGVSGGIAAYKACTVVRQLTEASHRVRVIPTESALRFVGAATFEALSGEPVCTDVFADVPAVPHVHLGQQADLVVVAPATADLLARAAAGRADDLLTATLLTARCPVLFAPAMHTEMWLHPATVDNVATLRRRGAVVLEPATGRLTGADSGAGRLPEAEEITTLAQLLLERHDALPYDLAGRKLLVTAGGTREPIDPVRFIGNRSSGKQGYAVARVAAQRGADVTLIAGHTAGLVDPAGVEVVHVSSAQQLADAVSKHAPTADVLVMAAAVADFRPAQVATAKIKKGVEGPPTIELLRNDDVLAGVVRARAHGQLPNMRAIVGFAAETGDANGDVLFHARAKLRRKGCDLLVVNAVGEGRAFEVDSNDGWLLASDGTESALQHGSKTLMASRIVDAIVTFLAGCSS
UniProt Q8IDJ8, 1-583: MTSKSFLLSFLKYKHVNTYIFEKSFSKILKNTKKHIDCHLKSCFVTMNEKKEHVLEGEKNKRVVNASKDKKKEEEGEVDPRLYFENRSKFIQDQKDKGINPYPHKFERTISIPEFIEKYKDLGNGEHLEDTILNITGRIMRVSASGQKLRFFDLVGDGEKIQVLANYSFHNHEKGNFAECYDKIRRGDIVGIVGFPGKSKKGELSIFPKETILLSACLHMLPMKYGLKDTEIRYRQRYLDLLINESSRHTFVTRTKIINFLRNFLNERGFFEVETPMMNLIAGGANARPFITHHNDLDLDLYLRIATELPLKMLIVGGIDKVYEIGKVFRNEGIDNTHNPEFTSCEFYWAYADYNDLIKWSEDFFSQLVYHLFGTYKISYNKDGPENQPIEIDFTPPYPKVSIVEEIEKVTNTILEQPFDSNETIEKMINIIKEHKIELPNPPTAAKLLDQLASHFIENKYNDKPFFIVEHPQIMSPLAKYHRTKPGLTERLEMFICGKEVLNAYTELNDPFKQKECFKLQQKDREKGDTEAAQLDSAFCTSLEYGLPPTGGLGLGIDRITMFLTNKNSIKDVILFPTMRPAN

A: 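Protease assay of ClpP1P2, read by the AMC dye that it sets free. Target: ClpP1P2, Mycobacterium tuberculosis (UniProt P9WPC5 and UniProt P9WPC3). Concentration: 50 µM. Higher reads as stronger inhibition, judged from the few compounds that gave an IC50. Most other retested compounds had strongly negative values. About 69,000 compounds were tested under these conditions; 0.015% (about 10) showed 50% or more at least once.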
B: 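Coenzyme A biosynthesis protein CoaBC, Mycobacterium tuberculosis (UniProt P9WNZ1). Enzyme assay of CoaBC with a phosphate dye (Biomol Green) read at 650 nm. Tested at 30 µM. Higher reads as stronger inhibition, judged from the few compounds that gave an IC50. Most strong results did not repeat in a second test. Of about 67,000 compounds tested this way, about 40 (0.06%) reached 50% or more in at least one test.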
C: 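Lysine-tRNA ligase, Plasmodium falciparum 3D7 (UniProt Q8IDJ8). Enzyme assay of the cytosolic lysyl-tRNA synthetase in 384-well plates, read by luminescence. Compounds at 30 µM. Direction is inferred from only a few compounds that gave an IC50; most scored high, so higher reads as stronger inhibition. Of about 69,000 compounds tested this way, about 49 (0.071%) reached 50% or more in at least one test.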

Values are the deposited “Percent Effect”, in %. The record does not define 0% and 100%; most values in the screen are far below 50% and negative numbers occur (in some assays of this library far below -100). Compounds were drawn at random from those tested, without regard to their results. A dash means the value is not listed here; it may have been measured.

Compound	A	B	C
Cc1ccc2occ(CN3CCN(c4ncccn4)CC3)c(=O)c2c1	-16.36	0.6135	-1.663
CS(=O)(=O)NC[C@]12COC[C@H]1CN(CCc1ccccc1)C2	2.509	7.128	-0.251
Cn1nc(CN2CCCC2)c2c1CN(C(=O)c1ccncc1F)CC2	-7.112	-9.368	0.6569
CCC(CC)C(=O)NS(=O)(=O)CCc1ccccc1	2.534	3.828	6.331
O=C1NCCN1C1CCN(CCc2cccs2)CC1	-6.353	7.949	0
Cc1cc(NC(=O)CNC(C)(C)c2ccccc2)on1	14.53	0	5.203
Cc1cccc(NC2CCN(C(=O)Nc3ccncc3)CC2)n1	-4.795	-9.43	-0.429
CN1CCN(C2CCN(Cc3ccc(Cl)cc3)CC2)C1=O	-1.359	-1.945	5.502
CCN(CC)S(=O)(=O)N1CCCC1C(=O)N1CCSCC1 (stereo unspecified)	-1.779	1.966	1.767
COc1ccc(C(=O)C2CCCN(Cc3ccon3)C2)c(OC)c1 (stereo unspecified)	-23.97	3.065	2.912
Cc1cc2c(=O)n3c(nc2s1)CCN(C(=O)c1cnn(C)c1)CC3	-2.607	-0.1239	-0.1445
CCOCC(O)CN1CCN(C(=O)c2cccc3[nH]ncc23)CC1 (stereo unspecified)	-15.43	-3.579	7.176
COc1nn(C)cc1C(=O)N1CCC(c2nnc(C3CC3)o2)CC1	-12.11	0.3802	-5.254
CCSc1ccc(C(C)NC(=O)CNS(C)(=O)=O)cc1 (stereo unspecified)	11.08	6.452	-0.559
O=C(CCc1ccccc1)NCC1CCN(Cc2ccsc2)CC1	-7.497	-0.6337	2.782
Cc1cccnc1C(Nc1nccc(C2CCCC2)n1)C1CC1 (stereo unspecified)	-17.2	3.271	4.723
Cc1ncc2c(n1)CN(CCOc1ccc3c(c1)CCC(=O)N3)CC2	2.463	13.94	6.45
CC(C)(C)OC(=O)N1CCCN(c2nnc(Br)s2)CC1	-18.28	0.6904	4.026
CC(C)C[C@H](NC(=O)NC1CCS(=O)(=O)C1)C(=O)NCc1cccnc1 (stereo partly specified)	-16.62	2.273	0.9698
NC(=O)N1CCC(C(=O)NCc2nncn2-c2ccccc2)CC1	-16.64	-8.964	1.489
Cc1ncsc1CCC(=O)N1CCN(CCn2cncn2)CC1	8.716	11.64	-1.519
CCc1[nH]ncc1C(=O)N1CCCC(n2nc(C)cc2C)C1 (stereo unspecified)	-23.89	-0.6818	2.165
Cc1cc(C)n(C2CCCN(C(=O)c3ccc(NC4CC4)nc3)C2)n1 (stereo unspecified)	4.706	-1.026	-4.137
CO[C@H]1CCN(c2ccc(C)nn2)[C@H]1Cc1cnn(C)c1	2.606	-8.903	12.01
O=C(c1ccoc1)N1CC[C@@H]2O[C@@H](COCC3CCOCC3)CC[C@@H]21	11.73	-11.56	-3.507
O=C(c1ccc(=O)[nH]c1)N1CCc2c(nc(-c3cccnc3)[nH]c2=O)C1	-8.732	-1.006	3.286
O=S(=O)(C1CC1)N1C[C@@H]2CN(Cc3cccs3)CCO[C@@H]2C1	7.244	-	1.999
CCN(CC)c1ccc(NC(=O)NCC2CCOC2)cn1 (stereo unspecified)	10.44	4.785	3.753
CCOc1nn(CC)cc1-c1nnc(SCC)n1C	6.671	0.7856	7.418
CC(Cc1cnccn1)NC(=O)COc1ccc(F)cc1F (stereo unspecified)	4.081	-7.927	3.717
COc1ccnc(NC2CCN(CC(=O)Nc3ccccc3)CC2)n1	10.26	-8.264	2.429
COCCN(CCC#N)S(=O)(=O)c1ccc(F)cc1Cl	-1.395	4.234	4.629
Fc1cccc(CN2CCC(c3n[nH]c4ncccc34)CC2)c1F	-2.302	-2.5	4.96
COc1cc2nc(C)n(CC(=O)NCCC(C)C)c(=O)c2cc1OC	-17.32	0	2.125
CC(C)C(=O)NCc1ccccc1NS(=O)(=O)c1ccccc1	-4.864	5.857	2.393
Cc1ccc(N2CCN(C(=O)COc3nccc(C)n3)CC2)nn1	-9.192	11.73	-5.529
O=C1Nc2ccccc2CN(CC2CC2)C12CCNC2 (stereo unspecified)	0.7638	5.263	7.353
Cc1ccc(C2CN(C(=O)c3c(C)cc(C)[nH]c3=O)CCO2)c(C)c1 (stereo unspecified)	5.462	0.7246	0.5729
CCc1ncc2c(n1)CN(CC(=O)Nc1cccnc1)CC2	-59.99	2.611	1.362
CCc1ncc2c(n1)CN(Cc1ncc(C(C)(C)C)o1)CC2	2.798	1.152	-2.281
Cc1cnn(CC2CCCN2C(=O)Cc2ccc(C)nc2)c1 (stereo unspecified)	12.91	5.216	3.774
CC(C)(C(N)=O)S(=O)(=O)c1ccc(Br)cc1	5.688	3.125	4.394
CC(C)(O)CCc1cccc(C(=O)N2CCC3(CCOCC3)CC2)c1	7.148	4.119	-0.1553
COC(=O)[C@]12CNC[C@H]1CN(Cc1nc(C)c[nH]1)C2	-13.17	2.662	-0.2898
CCn1cc(Cl)c(C(=O)NCc2cnn(C)c2)n1	-19.5	-5.166	2.612
CCc1nc(CS(=O)(=O)Cc2noc(C3CC3)n2)cs1	-4.234	-5.943	4.234
CN(C)C(=O)CNC(=O)c1nc2c(s1)CCCN2Cc1ccccc1	-11.38	-28.75	-0.7763
Cc1cc(F)ccc1OC1(C(=O)O)CCN(Cc2ccncc2)CC1	2.241	10.27	-4.85
CCCNc1nnc(S(=O)(=O)CCOCC)s1	-2.725	7.052	4.927
COc1ccc(CN(Cc2cncn2C)CC2CCCO2)cc1 (stereo unspecified)	18.97	2.906	5.336